Data taken from article PMC9565047.
These are yes or no findings as the source states them, for the method shown. A result given as binding can be weak or reduced; the word gives no strength.

The chains behind the UniProt entries cited, without tags or fusion partners. Where a name states a change or a piece, a line headed by the entry shows the natural chain unless it says otherwise.
UniProt B4YB07: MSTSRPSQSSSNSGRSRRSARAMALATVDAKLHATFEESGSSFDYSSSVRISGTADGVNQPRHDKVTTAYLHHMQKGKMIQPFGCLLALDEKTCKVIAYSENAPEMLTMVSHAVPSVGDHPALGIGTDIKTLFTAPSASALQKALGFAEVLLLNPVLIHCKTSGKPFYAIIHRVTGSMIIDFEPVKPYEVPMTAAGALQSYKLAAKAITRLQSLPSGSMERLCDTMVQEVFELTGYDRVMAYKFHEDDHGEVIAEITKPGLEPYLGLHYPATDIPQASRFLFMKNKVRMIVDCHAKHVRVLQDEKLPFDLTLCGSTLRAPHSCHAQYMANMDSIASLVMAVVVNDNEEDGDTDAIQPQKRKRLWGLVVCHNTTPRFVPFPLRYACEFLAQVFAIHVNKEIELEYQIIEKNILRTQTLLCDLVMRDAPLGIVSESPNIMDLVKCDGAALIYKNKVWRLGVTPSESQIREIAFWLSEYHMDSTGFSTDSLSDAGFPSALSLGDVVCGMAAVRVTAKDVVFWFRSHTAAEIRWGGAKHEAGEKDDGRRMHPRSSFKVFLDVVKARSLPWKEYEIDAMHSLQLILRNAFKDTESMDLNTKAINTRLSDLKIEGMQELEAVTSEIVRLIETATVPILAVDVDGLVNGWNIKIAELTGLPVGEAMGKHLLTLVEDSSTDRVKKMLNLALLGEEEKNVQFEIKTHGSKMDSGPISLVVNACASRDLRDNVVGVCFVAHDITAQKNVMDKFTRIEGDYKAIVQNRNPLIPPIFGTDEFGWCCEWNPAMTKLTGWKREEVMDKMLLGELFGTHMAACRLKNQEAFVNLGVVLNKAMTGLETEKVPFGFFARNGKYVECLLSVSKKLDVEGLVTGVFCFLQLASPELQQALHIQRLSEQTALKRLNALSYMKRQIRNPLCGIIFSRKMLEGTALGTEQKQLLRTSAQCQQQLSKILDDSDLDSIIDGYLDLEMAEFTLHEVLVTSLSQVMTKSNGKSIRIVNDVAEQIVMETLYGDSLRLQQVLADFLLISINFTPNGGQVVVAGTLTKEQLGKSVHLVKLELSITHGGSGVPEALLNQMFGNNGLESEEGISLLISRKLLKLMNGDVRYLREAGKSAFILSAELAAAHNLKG

Key:
[1] = biological target: phyA2 (full length, yeast two-hybrid fusion) (soybean (Glycine max)) (UniProt B4YB07); assay: two-hybrid; GAL4 yeast two-hybrid (Clontech); growth on SD/-Leu-Trp, selection on SD/-His-Leu-Trp or SD/-His-Leu-Trp-Ade with 3-amino-1,2,4-triazole
[2] = biological target: phyA3 (full length, yeast two-hybrid fusion) (soybean (Glycine max)) (UniProt C1PHB8); assay: as above

binding [1]: binds
binding [2]: binds
Substance: E1lb (yeast two-hybrid fusion) (from UniProt K7MS71)
